In the assay the target is T1, FLAG-tagged KaiC1 (Synechocystis sp. PCC 6803) (UniProt P74646).
T1 sequence: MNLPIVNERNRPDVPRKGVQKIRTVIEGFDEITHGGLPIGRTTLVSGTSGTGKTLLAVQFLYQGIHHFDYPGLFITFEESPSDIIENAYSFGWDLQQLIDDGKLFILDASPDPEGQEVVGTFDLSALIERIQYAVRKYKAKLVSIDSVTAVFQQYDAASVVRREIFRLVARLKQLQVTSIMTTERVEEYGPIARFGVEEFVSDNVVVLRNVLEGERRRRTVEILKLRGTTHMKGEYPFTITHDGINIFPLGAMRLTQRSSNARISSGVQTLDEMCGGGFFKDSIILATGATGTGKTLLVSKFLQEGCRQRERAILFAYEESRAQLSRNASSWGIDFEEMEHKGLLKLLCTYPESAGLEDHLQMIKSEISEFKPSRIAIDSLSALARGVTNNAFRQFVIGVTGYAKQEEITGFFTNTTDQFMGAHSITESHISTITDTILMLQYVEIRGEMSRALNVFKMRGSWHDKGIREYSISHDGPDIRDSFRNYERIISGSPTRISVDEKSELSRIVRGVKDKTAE
Put plainly: affinity purification with mass spectrometry; FLAG-tagged bait in Synechocystis (PCC-M); extract solubilised with n-dodecyl-β-maltoside, buffer with 1 mM ATP; Anti-Flag M2 magnetic beads; eluates by nanoLC-MS/MS; FLAG-sfGFP strain as control.

Results are given in words; binding and its absence hold for the method and conditions named. In cells and extracts the contact can be indirect. Here binding means that the protein was enriched with, or labelled near, the bait; the list need not be complete. A no says only that the protein was not detected with the bait. Sequences can lack the tags named with a protein.

Take “KaiA3 (Sll0485), endogenous in Synechocystis”: the binding entry is “no binding”.

For the origin of these results see paper PMC11372060, “Two KaiABC systems control circadian oscillations in one cyanobacterium” (Nature Communications, 2024).
